# Screening data, single-dose tests

Data taken from ChEMBL document CHEMBL3988442, “University of Dundee, Small-Polar-MMV Screening Library” (2021).

The filed quantity is “Percent Effect” (%).
The record does not define 0% and 100%; most values in the screen are far below 50% and negative numbers occur (in some assays of this library far below -100).
This is an unselected part of the compounds tested.
Two or more numbers in one place are separate tests of the same structure; such repeats can differ widely.
A dash means the value is not listed here; it may have been measured.

T. brucei: 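Whole-parasite assay of Trypanosoma brucei over 72 hours; the read-out is not stated. Concentration: 30 µM. Higher reads as stronger inhibition (inferred: compounds with an IC50 in retests scored well above the rest). Values scatter widely below zero; nearly all retest evidence comes from the higher of the two concentrations used. Of about 64,000 compounds tested this way, about 940 (1.5%) reached 50% or more in at least one test.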
Toxoplasma: 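Assay of Toxoplasma gondii numbers, read through their beta-galactosidase reporter with a colour substrate. Compounds at 10 µM. Higher reads as fewer parasites (inferred from which compounds were picked for retests). Size under these conditions: about 67,000 compounds, about 260 of them at 50% or above in at least one test.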
Leishmania in macrophages: 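Cell assay of Leishmania donovani living inside macrophages; the read-out is not stated. Compounds at 30 µM. Higher reads as stronger inhibition (inferred: compounds with an IC50 in retests scored well above the rest). Size under these conditions: about 69,000 compounds, about 1,000 of them at 50% or above in at least one test.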

Compound,T. brucei,Toxoplasma,Leishmania in macrophages
[H][C@]12CCN(c3cc(OC)ncn3)CC[C@]1([H])N(C)CCO2,-99.05,-7.225,38.01
Cc1cc(C)cc(N(C)S(=O)(=O)c2cc(C(=O)O)cs2)c1,5.253,4.078,6.858
Brc1ccc2[nH]c3c(c2c1)CCCC3c1nn[nH]n1 (stereo not shown),-44.01,6.568,14.24
CN1[C@@H](c2ccccc2)[C@@H](C(=O)NCC2CCOCC2)C[C@@]1(C)C(=O)O,-29.11,-20.69,-2.009
Cc1nc(NCc2cccnc2)cc(C2COCCN2)n1 (stereo not shown),-2.285,0.2466,6.569
CNC(=O)C1CCCCN1C(=O)c1csc(-c2ccc(C)o2)n1 (stereo not shown),-52.75,3.16,-9.492
CC(O)CN1CCN(Cc2cccc(C(=O)N3CCCCC3)c2)CC1 (stereo not shown),-23.28,67.87,3.607
O=C(N[C@@H]1CCC[C@@H](n2ccnc2)[C@@H]1O)c1ccc2c(c1)CCCC2,-10.35,-4.643,9.796 and 0.1858
Cn1ccnc1C(O)c1ccccc1N1CCN(Cc2cccs2)CC1 (stereo not shown),18.93,11.32,38.49
Cc1ccc(C2CSCCN2C(=O)c2cnsn2)o1 (stereo not shown),-17.73,-1.919,-4.407
CC(C)=CCN1CCc2onc(-c3ccc(F)c(F)c3)c2C1,-,-22.33,-19.28
O=C(O)C(F)(F)F.[H][C@@]12CCN(Cc3cnn(C)c3)[C@]1([H])CC[C@@H](C(=O)NCc1ccco1)O2,-25.29,4.38,-14.56
Cc1nn2cccnc2c1C(=O)NCc1ccccc1OC1CCC1,-39.23,-27.65,15.75
O=C(O)C(F)(F)F.O=C(O)C(F)(F)F.[H][C@@]12CCN(Cc3cccc(C)n3)[C@@]1([H])CCN2C(=O)c1ccno1,3.724,11.8,26.34
O=C(c1cnc(-c2cccs2)s1)N1CCCN2CCCC2C1 (stereo not shown),-22.7,-5.457,26.76
O=c1[nH]cnc2c1CCN(S(=O)(=O)c1cccc(OC(F)(F)F)c1)C2,-15.44,3.832,-4.933
Cc1cccc(COCC2c3nnn(C)c3CCN2Cc2ccoc2)n1.O=C(O)C(F)(F)F.O=C(O)C(F)(F)F (stereo not shown),-100.1,0.7324,20.65
[H][C@@]12CCN(Cc3ccoc3)C[C@@]1([H])O[C@H](c1ccnc(C(C)C)n1)C2,-20.61,4.578,9.844
COc1cc(CNCc2ccnc(N3CCOCC3)c2)cc(OC)c1,-9.417,12.45,28.31
Cc1n[nH]cc1CNc1ccc2c(c1)N(C(=O)OC(C)(C)C)CCC2,2.143,-42.88,39.38
Cc1cn2c(n1)CCC(NC(=O)CCCn1cncn1)C2 (stereo not shown),-5.171,5.034,-19.17
CC(C)n1nc2c(cc1=O)CN(Cc1nnc(C3CC3)o1)CC2,17.53,0.2245,6.398
CC(=O)N1CCC(c2nc3ccc(-c4ccnn4C)cn3n2)CC1.O=C(O)C(F)(F)F,-6.615,-1.899,0.1198
Cc1nc(C2CCCN2Cc2nnc(C3CC3)o2)no1 (stereo not shown),-26.58,0.1077,-19.45
CCN(Cc1cccc2c1OCO2)CC1CCCO1 (stereo not shown),0.2413,7.797,18.83
CN(Cc1cccnc1)CC1CCCN1c1cccnn1 (stereo not shown),-57.55,-40.11,3.704
CCc1ccc(S(=O)(=O)N2CCCC3(CCCN3S(C)(=O)=O)C2)cc1 (stereo not shown),-74.25,28.59,2.189
NC(c1ccccc1)c1ccc(OC(F)F)cc1 (stereo not shown),-11.38,16.7,24.67
CCc1nc(N)nc(NCc2cnn3cccnc23)c1C,-47.48,4.502,17.05
CCOCC1CN(C(=O)c2ccco2)Cc2cnn(CC)c21 (stereo not shown),-25.16,-11.24,12.92
O=C(C1CC1)N1CCC(O)(CN2CCN(c3ccccc3)CC2)C1 (stereo not shown),-,-,15.83
CC(C)C(=O)N1CCC2(CC1)COCCN2Cc1ccc(F)cc1.O=C(O)C(F)(F)F,21.09,-12.06,19.05
CC(=O)N1CCC(c2cncc(N3CCOCC3)n2)CC1,-2.67,10.99,24.64
CCOCCNC(=O)c1ccc(OC)cc1I,-18.41,-2.193,5.403
Cc1nc(CN(C)C(=O)NC(C)c2ccc3c(c2)OCCO3)cs1 (stereo not shown),-35.57,1.68,17.73
Cn1ccnc1C1CCCN(C(=O)c2cc(F)cc(F)c2)C1 (stereo not shown),-43.26,20.33,21.38
Cc1cc(Cl)ccc1-n1ncc(C(=O)NCC2COC(C)(C)O2)c1N (stereo not shown),-25.76,-0.726,16.21
Nc1cc(C(=O)NCC2CCN(Cc3cccc(O)c3)C2)ccn1 (stereo not shown),-113.9,8.583,-31.78
COCCCN1CC2(CCCCN2C(=O)C2CCCCC2)CC1=O (stereo not shown),-68.91,-3.614,7.055
CC(CN1CCCCCC1)NCc1nncn1C1CCCCC1 (stereo not shown),-12.02,-4.417,-1.57
Cc1cc(C)n(CC2CCCCN2C(=O)c2ccc3c(c2)OCO3)n1 (stereo not shown),-20.24,-6.933,-4.127

The last 3 entries again:

| Compound | T. brucei | Toxoplasma | Leishmania in macrophages |
|---|---|---|---|
| `COCCCN1CC2(CCCCN2C(=O)C2CCCCC2)CC1=O` (stereo not shown) | -68.91 | -3.614 | 7.055 |
| `CC(CN1CCCCCC1)NCc1nncn1C1CCCCC1` (stereo not shown) | -12.02 | -4.417 | -1.57 |
| `Cc1cc(C)n(CC2CCCCN2C(=O)c2ccc3c(c2)OCO3)n1` (stereo not shown) | -20.24 | -6.933 | -4.127 |